From paper PMC5131319, “Occurrence, temporal trends, and half-lives of perfluoroalkyl acids (PFAAs) in occupational workers in China” (Scientific Reports, 2016)
Values joined by “and” are separate entries in the source; they are usually repeats but may differ in a detail not shown here. Identical values can stand only once. Further values from the same series stand in other lists.

What was measured:
[1] = PFAA concentration in serum of occupational workers (HPLC-ESI/MS/MS); type: in vivo, human; design: unit: ng/mL
Procedure: (§1) The selected fluorochemical plant (Henxin Chemical Plant) in this study is one of the largest producers of PFOS-related chemicals in China and is located in Yingcheng, Hubei province. Perfluoroalkyl sulfonic acids (PFSAs) and perfluorotertiary amines are synthesized through an electro-chemical fluorination (ECF) process. We collected paired serum and urine samples from the occupational workers in the plant for five consecutive years, and the sampling activities were carried out in Nov. 2008, Nov. 2009, Nov. 2010, Dec. 2011, and Dec 2012, respectively. The Medical Research Ethics Committee, School of Medicine, Jianghan University, approved the ethics of this study, and all methods were performed in accordance with the relevant guidelines and regulations, moreover, all volunteers gave written informed consent. Demographic information of the donors, including gender, age, length of service, and work assignment, was collected with a questionnaire (Table S1). The sampled population included a total of 302 occupational workers, of which there were 89 female and 213 male participants. In total, 302 serum and 274 urine samples were collected.
(§2) The participants were told not to eat breakfast before the sampling, and morning urine samples and blood samples were collected. Serum was separated from the blood by centrifugation at 1100 × g at 4 °C for 10 min and then placed on ice. Serum samples were then transferred to our laboratory on the same day and stored in polypropylene containers at −20 °C until analysis.
All pre-treatment methods and instrument analysis of PFAAs in serum and urine samples are based on previous studies with minor modifications (see Supplementary Information)[3][31]. Based on the PFAA profiles in environmental matrices around the same plant in our previous study, only 3 main PFAAs, PFHxS, PFOA, and PFOS, were analyzed in the obtained serum and urine samples. Instrumental analysis of the PFAAs was performed by a HPLC-ESI/MS/MS system (HPLC: Waters 2695, MS: Waters Quattro Premier XE). […]

[2] = Daily renal clearance rate (Clrenal) and serum-to-urine ratio from paired serum and urine; type: in vivo, human; settings: individual workers
Source text: The positive correlations between the PFAAs in the serum and the paired urine samples were highly statistically significant, with correlation coefficients of 0.87, 0.64, and 0.72 for PFHxS, PFOA, and PFOS, respectively, (p < 0.01). […] Additionally, the relative abundances of PFOS, PFHxS, and PFOA between the serum and paired urine samples were quite different. The relative abundances in the serum are 64%, 24%, and 12%, respectively, while those in the urine were 19%, 31%, and 40%, respectively. […] Moreover, the ratio of serum-to-urine concentrations (S/U) might be an indicator for PFAA excretion in humans because PFAAs could concentrate in serum while urine excretion is considered an important PFAA elimination pathway. The GM values of S/U for PFHxS, PFOA, and PFOS in all samples were 697, 288, and 1782, respectively, indicating the difficulty in PFAA renal elimination from the workers. To exclude the potential effect of individual differences related to demographic information such as body weight and gender, the daily renal clearance rate (Clrenal) was introduced in the study. Clrenal is a parameter defined in Eq (3) that adjusts the S/U through body weight and the gender-specific daily urine excretion volume.
Paired samples with either concentration under the LOD were set as LOD/2 in the Clrenal study. The urine excretion volumes of males and females were set at 1.4 and 1.2 L/day in the study, respectively, and the body weight values of individual workers were obtained from our questionnaires. The calculated Clrenal values for PFHxS, PFOA, PFOS ranged from 2.0 × 10^−4 to 2.3, 9.0 × 10^−5 to 2.4, and 5.0 × 10^−5 to 0.54 mL day^−1 kg^−1 with GM values of 0.023, 0.067 and 0.010 mL day^−1 kg^−1, respectively (Fig. 3). The minimum values of the PFAAs Clrenal were calculated on the basis of LOD/2 instead of ND (not detected) in the present study. […] However, Zhang et al. observed that the Clrenal of PFHxS was the lowest among these 3 type of PFAAs[28]. The median Clrenal of PFAAs in the present study was similar to that of Zhou et al.’s study (0.012 mL day^−1 kg^−1 for PFHxS, 0.061 mL day^−1 kg^−1 for PFOA, and 0.010 mL day^−1 kg^−1 for PFOS)[39]. In contrast, as noted elsewhere, the Clrenal values of PFOA were the highest among those of the three PFAAs[28][38]. The most recent study on the elevated serum concentrations of PFAAs in fishery employees from Tangxun Lake also stated that the median Clrenal of PFOA (0.061 mL day^−1 kg^−1) was higher than those of the PFHxS and PFOS (0.012 and 0.010 mL day^−1 kg^−1)[39]. […] Moreover, the renal clearance rates of PFAAs in humans were not obviously influenced by the PFAAs level in the serum. […] In addition, gender could not be discounted. […]

[3] = cited from earlier work
[4] = PFAA concentration in morning urine of occupational workers (HPLC-ESI/MS/MS); type: in vivo, human
Procedure: as §1, §2
All pre-treatment methods and instrument analysis of PFAAs in serum and urine samples are based on previous studies with minor modifications (see Supplementary Information)[3][31]. Based on the PFAA profiles in environmental matrices around the same plant in our previous study, only 3 main PFAAs, PFHxS, PFOA, and PFOS, were analyzed in the obtained serum and urine samples. Instrumental analysis of the PFAAs was performed by a HPLC-ESI/MS/MS system (HPLC: Waters 2695, MS: Waters Quattro Premier XE). The limits of detection (LODs) of PFHxS, PFOA, and PFOS were 0.020, 0.063, and 0.018 ng mL^−1 for serum samples and 0.008, 0.025, and 0.007 ng mL^−1 for urine samples, respectively. A procedural blank was performed for every batch of seven samples, and all of the blank levels were below the LODs. […] Details of quality assurance and quality control of the chemical analysis can be found in the Supplementary Information.
Urine samples were pretreated by solid phase extraction. Briefly, 1 mL of urine spiked with 5 ng of internal standard was added to a 15 - mL PP tube and diluted with 13 mL water. The solid phase extraction procedure was then performed following the previously described serum extraction procedure.

Structure (SMILES): O=C(O)C(F)(F)C(F)(F)C(F)(F)C(F)(F)C(F)(F)C(F)(F)C(F)(F)F [PFOA, perfluorooctanoic acid]
- Serum PFAA level ([1]; Electrolytic Department, length of service 1-3 years): 918
- Serum PFAA level ([1]; Electrolytic Department, length of service >3 years): 1160
- Serum PFAA level ([1]; Research Building, length of service < 1 year): 22
- Renal clearance rate (PFOA) ([2]; sampling year 2008): 0.091 mL/day/kg and 0.123 mL/day/kg and 0.108 mL/day/kg
- Renal clearance rate (PFOA) ([2]; sampling year 2009): 0.587 mL/day/kg and 0.257 mL/day/kg and 0.139 mL/day/kg
- Renal clearance rate (PFOA) ([2]; sampling year 2011): 0.183 mL/day/kg and 0.392 mL/day/kg and 0.196 mL/day/kg and 0.086 mL/day/kg
- Renal clearance rate (PFOA) ([2]; sampling year 2012): 0.079 mL/day/kg and 0.063 mL/day/kg and 0.109 mL/day/kg and 0.097 mL/day/kg
- Clrenal values obtained from different sources, range [3]: 0.01 to 0.1 mL/day/kg
- Clrenal, median ([3]; fishery employees from Tangxun Lake): 0.061 mL/day/kg

Structure (SMILES): O=S(=O)(O)C(F)(F)C(F)(F)C(F)(F)C(F)(F)C(F)(F)C(F)(F)C(F)(F)C(F)(F)F [PFOS, perfluorooctanesulfonate]
- Urine PFOS concentration ([4]; sampling year 2008, individual workers): 1.42 ng/mL and 2.15 ng/mL and 26.9 ng/mL and 0.877 ng/mL and 4.86 ng/mL
- Urine PFOS concentration ([4]; sampling year 2009, individual workers): 0.683 ng/mL and 0.951 ng/mL and 0.498 ng/mL and 1.27 ng/mL and 2.77 ng/mL and 0.57 ng/mL and 0.314 ng/mL and 0.504 ng/mL
- Urine PFOS concentration ([4]; sampling year 2010, individual workers): 6 ng/mL and 0.418 ng/mL and 6.9 ng/mL and 1.17 ng/mL and 6.54 ng/mL and 0.416 ng/mL and 0.864 ng/mL and 0.395 ng/mL and 0.971 ng/mL
- Urine PFOS concentration ([4]; sampling year 2011, individual workers): 2.80 ng/mL and 0.80 ng/mL and 0.48 ng/mL and 0.64 ng/mL and 5.37 ng/mL and 3.45 ng/mL and 0.25 ng/mL and 0.21 ng/mL
- Urine PFOS concentration ([4]; sampling year 2012, individual workers): 1.1 ng/mL and 0.98 ng/mL and 0.38 ng/mL and 4.54 ng/mL and 0.28 ng/mL and 0.86 ng/mL and 0.4 ng/mL
